Data on nine molecules can be found in publication PMC9351137.

Amino acid sequences for entries named in this document (tags omitted).
UniProt O96019: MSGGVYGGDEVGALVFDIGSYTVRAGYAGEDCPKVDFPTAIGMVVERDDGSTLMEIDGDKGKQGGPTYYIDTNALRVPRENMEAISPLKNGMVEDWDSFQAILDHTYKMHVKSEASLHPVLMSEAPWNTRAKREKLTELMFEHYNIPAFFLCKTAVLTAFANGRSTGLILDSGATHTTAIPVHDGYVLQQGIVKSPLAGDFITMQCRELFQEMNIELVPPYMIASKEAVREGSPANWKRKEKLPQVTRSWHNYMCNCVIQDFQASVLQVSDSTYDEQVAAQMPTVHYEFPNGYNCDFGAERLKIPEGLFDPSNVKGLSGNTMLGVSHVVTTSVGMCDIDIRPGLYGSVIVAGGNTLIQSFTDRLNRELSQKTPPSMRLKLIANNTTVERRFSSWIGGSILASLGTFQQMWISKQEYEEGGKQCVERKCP
UniProt Q92993: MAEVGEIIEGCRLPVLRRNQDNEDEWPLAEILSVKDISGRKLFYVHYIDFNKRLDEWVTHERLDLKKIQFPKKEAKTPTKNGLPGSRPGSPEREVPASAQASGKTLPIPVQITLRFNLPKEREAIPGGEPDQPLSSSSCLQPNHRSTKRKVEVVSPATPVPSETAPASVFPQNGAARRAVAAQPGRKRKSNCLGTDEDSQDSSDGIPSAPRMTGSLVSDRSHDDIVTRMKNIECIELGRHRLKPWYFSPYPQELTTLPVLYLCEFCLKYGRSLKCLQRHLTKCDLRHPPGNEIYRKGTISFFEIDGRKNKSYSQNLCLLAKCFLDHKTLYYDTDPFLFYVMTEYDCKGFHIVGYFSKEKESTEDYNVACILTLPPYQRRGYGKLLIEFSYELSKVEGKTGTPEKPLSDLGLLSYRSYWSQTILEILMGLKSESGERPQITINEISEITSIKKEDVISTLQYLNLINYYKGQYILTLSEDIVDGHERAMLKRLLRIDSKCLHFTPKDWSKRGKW
UniProt Q8WUM4: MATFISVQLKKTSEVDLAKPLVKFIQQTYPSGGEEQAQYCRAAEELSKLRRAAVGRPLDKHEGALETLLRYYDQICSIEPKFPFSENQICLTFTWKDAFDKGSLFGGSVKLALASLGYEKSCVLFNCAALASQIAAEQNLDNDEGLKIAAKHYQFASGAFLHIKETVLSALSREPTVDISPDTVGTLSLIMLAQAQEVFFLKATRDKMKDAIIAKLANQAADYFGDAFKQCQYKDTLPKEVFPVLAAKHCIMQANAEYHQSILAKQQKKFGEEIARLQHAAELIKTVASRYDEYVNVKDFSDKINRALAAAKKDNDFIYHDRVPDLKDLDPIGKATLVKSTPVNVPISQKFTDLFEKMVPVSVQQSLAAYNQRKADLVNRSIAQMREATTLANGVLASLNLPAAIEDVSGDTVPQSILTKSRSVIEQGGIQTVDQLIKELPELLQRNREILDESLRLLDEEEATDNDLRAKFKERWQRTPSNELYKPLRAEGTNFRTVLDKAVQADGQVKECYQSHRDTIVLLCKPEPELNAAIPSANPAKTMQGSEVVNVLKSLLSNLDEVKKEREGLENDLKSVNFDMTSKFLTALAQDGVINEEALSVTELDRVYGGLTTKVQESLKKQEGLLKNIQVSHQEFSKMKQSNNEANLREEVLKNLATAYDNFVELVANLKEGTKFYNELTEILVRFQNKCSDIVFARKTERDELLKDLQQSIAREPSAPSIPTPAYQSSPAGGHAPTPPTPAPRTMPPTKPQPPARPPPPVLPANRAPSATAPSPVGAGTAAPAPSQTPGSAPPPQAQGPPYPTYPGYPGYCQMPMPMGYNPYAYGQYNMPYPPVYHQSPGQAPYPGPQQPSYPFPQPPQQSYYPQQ
UniProt Q96GD4: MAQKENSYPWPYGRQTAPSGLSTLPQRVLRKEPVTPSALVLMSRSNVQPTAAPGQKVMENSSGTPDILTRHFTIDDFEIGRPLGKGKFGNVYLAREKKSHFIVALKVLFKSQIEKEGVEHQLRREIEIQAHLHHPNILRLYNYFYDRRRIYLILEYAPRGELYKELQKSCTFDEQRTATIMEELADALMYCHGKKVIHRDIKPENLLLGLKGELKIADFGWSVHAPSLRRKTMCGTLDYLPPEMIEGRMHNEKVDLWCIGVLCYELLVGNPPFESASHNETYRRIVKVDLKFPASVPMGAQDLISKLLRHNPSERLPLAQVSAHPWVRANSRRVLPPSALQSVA
UniProt O95235: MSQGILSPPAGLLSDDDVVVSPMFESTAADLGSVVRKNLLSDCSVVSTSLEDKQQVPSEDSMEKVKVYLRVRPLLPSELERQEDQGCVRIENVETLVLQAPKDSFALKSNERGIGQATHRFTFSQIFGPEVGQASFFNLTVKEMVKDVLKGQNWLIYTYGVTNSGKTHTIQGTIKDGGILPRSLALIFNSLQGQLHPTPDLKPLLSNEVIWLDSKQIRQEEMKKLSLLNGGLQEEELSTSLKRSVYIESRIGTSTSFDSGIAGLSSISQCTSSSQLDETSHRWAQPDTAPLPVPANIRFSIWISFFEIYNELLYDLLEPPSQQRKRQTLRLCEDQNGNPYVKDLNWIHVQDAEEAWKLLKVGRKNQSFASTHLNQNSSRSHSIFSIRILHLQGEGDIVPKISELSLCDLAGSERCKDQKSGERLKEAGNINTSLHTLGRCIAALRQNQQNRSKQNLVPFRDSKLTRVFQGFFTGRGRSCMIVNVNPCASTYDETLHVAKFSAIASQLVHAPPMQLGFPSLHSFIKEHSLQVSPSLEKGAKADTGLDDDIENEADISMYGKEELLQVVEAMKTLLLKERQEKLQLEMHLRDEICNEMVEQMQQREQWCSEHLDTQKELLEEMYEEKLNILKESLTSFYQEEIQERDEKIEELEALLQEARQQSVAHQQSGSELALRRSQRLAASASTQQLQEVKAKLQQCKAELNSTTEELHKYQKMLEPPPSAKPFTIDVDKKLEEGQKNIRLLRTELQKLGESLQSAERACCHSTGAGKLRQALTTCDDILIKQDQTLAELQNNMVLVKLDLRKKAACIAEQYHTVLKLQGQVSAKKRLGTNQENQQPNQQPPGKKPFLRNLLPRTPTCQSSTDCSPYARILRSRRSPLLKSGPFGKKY
UniProt Q9UBU8: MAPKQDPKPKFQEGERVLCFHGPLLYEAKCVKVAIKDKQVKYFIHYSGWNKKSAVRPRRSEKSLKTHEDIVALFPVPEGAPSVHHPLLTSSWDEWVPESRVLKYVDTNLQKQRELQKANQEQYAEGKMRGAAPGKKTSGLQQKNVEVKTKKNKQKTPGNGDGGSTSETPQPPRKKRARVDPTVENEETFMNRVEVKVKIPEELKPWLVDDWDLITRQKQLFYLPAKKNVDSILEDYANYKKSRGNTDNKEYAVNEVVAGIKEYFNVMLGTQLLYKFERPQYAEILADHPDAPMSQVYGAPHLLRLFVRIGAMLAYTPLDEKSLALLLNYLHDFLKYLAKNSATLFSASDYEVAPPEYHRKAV
UniProt O14578: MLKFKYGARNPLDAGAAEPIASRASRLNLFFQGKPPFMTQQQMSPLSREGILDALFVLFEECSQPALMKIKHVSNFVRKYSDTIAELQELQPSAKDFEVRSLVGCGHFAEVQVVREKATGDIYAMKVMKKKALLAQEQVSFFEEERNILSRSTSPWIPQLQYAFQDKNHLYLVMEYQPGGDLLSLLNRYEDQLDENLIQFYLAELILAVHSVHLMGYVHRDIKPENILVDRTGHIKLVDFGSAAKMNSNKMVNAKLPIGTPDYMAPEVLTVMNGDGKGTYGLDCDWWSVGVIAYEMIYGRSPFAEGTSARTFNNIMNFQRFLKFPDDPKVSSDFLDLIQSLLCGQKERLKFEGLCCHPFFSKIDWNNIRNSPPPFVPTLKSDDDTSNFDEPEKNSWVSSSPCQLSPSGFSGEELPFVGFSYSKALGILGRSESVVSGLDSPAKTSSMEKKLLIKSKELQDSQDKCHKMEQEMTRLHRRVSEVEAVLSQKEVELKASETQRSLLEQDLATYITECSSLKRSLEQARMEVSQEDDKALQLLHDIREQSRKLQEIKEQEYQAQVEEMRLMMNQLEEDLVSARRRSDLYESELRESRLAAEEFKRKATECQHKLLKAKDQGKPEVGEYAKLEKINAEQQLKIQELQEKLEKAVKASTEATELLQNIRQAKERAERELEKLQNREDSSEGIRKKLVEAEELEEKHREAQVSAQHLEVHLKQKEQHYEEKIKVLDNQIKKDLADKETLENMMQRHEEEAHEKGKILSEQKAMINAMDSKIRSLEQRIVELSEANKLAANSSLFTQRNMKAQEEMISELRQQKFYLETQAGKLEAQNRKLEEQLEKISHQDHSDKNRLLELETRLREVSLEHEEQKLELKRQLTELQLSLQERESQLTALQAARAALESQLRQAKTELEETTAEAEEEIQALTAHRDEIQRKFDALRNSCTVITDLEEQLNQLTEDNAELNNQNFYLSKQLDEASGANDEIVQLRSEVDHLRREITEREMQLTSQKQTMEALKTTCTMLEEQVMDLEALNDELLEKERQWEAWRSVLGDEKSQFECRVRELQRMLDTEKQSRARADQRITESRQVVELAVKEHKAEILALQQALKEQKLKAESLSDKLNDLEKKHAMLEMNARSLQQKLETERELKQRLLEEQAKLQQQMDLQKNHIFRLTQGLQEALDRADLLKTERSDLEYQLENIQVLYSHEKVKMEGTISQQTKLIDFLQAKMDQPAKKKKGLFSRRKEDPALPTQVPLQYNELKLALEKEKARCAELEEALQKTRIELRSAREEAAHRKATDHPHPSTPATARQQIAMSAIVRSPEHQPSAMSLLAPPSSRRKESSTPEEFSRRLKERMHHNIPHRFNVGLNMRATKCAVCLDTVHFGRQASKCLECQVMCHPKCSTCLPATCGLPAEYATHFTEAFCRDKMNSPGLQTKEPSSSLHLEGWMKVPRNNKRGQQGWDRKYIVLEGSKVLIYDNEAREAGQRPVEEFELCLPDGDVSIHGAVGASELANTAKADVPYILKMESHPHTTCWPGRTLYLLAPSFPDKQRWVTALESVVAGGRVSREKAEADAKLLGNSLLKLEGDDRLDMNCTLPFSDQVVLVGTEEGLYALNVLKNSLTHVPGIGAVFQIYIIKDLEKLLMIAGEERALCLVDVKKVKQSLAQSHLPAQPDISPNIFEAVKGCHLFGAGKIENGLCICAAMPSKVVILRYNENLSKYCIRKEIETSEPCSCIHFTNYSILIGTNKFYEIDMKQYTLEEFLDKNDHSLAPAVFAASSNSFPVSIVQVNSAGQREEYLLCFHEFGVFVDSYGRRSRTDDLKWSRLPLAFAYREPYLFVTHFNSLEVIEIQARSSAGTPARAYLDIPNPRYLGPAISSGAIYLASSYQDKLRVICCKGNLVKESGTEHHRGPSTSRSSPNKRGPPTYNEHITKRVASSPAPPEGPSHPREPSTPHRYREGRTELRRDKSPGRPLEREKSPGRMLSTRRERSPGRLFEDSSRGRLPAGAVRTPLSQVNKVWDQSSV

These are yes or no findings as the source states them, for the method shown. Binding seen in cells or lysates may run through a third protein. Some entries that bind do so weakly or less than the wild type.

Experiment [1] deals with BAF53a (human (endogenous in HeLa)) (UniProt O96019). In words: co-IP; rabbit polyclonal antibodies (Abcam) against BAF53a or Tip60 and beads; input: chromatin-free cytosolic (S2) fraction (2 mg/ml) of HeLa cells synchronized in telophase (thymidine/nocodazole); negative control without antibody; Western blot; three independent IPs. (Immunoblotting shows a protein as a band on a membrane.)

The target in experiment [2] is Tip60 (human (endogenous in HeLa)) (UniProt Q92993). The experiment is described as above.

Turning to Alix (from UniProt Q8WUM4 1-868), the binding entry in experiment [1] and in experiment [2] was “no binding” each time.

With Aurora B (from UniProt Q96GD4 1-344), the binding result in experiment [1] and in experiment [2] was “binds” throughout.

For the molecule MKLP2 (from UniProt O95235 1-890), the binding entry in experiment [1] and in experiment [2] was “binds” in each case.

For the molecule MRG15 (from UniProt Q9UBU8 1-362), the binding result in experiment [1] and in experiment [2] was “binds” in each case.

Tip60 (from UniProt Q92993 1-513): the binding result in experiment [1] is reported as “binds”.

As for “citron kinase (from UniProt O14578 1-2027)”, the binding entry in experiment [1] and in experiment [2] was “binds” each time.

B1: CEP55 (protein, UniProt Q53EZ4 1-464)
chain: MSSRSTKDLIKSKWGSKPSNSKSETTLEKLKGEIAHLKTSVDEITSGKGKLTDKERHRLLEKIRVLEAEKEKNAYQLTEKDKEIQRLRDQLKARYSTTTLLEQLEETTREGERREQVLKALSEEKDVLKQQLSAATSRIAELESKTNTLRLSQTVAPNCFNSSINNIHEMEIQLKDALEKNQQWLVYDQQREVYVKGLLAKIFELEKKTETAAHSLPQQTKKPESEGYLQEEKQKCYNDLLASAKKDLEVERQTITQLSFELSEFRRKYEETQKEVHNLNQLLYSQRRADVQHLEDDRHKTEKIQKLREENDIARGKLEEEKKRSEELLSQVQFLYTSLLKQQEEQTRVALLEQQMQACTLDFENEKLDRQHVQHQLHVILKELRKARNQITQLESLKQLHEFAITEPLVTFQGETENREKVAASPKSPTAALNESLVECPKCNIQYPATEHRDLLVHVEYCSK
As for B1, the binding entry in experiment [1] and in experiment [2] was “binds” in each case.

B2: anillin (protein, UniProt Q9NQW6 1-1124)
chain: MDPFTEKLLERTRARRENLQRKMAERPTAAPRSMTHAKRARQPLSEASNQQPLSGGEEKSCTKPSPSKKRCSDNTEVEVSNLENKQPVESTSAKSCSPSPVSPQVQPQAADTISDSVAVPASLLGMRRGLNSRLEATAASSVKTRMQKLAEQRRRWDNDDMTDDIPESSLFSPMPSEEKAASPPRPLLSNASATPVGRRGRLANLAATICSWEDDVNHSFAKQNSVQEQPGTACLSKFSSASGASARINSSSVKQEATFCSQRDGDASLNKALSSSADDASLVNASISSSVKATSPVKSTTSITDAKSCEGQNPELLPKTPISPLKTGVSKPIVKSTLSQTVPSKGELSREICLQSQSKDKSTTPGGTGIKPFLERFGERCQEHSKESPARSTPHRTPIITPNTKAIQERLFKQDTSSSTTHLAQQLKQERQKELACLRGRFDKGNIWSAEKGGNSKSKQLETKQETHCQSTPLKKHQGVSKTQSLPVTEKVTENQIPAKNSSTEPKGFTECEMTKSSPLKITLFLEEDKSLKVTSDPKVEQKIEVIREIEMSVDDDDINSSKVINDLFSDVLEEGELDMEKSQEEMDQALAESSEEQEDALNISSMSLLAPLAQTVGVVSPESLVSTPRLELKDTSRSDESPKPGKFQRTRVPRAESGDSLGSEDRDLLYSIDAYRSQRFKETERPSIKQVIVRKEDVTSKLDEKNNAFPCQVNIKQKMQELNNEINMQQTVIYQASQALNCCVDEEHGKGSLEEAEAERLLLIATGKRTLLIDELNKLKNEGPQRKNKASPQSEFMPSKGSVTLSEIRLPLKADFVCSTVQKPDAANYYYLIILKAGAENMVATPLASTSNSLNGDALTFTTTFTLQDVSNDFEINIEVYSLVQKKDPSGLDKKKKTSKSKAITPKRLLTSITTKSNIHSSVMASPGGLSAVRTSNFALVGSYTLSLSSVGNTKFVLDKVPFLSSLEGHIYLKIKCQVNSSVEERGFLTIFEDVSGFGAWHRRWCVLSGNCISYWTYPDDEKRKNPIGRINLANCTSRQIEPANREFCARRNTFELITVRPQREDDRETLVSQCRDTLCVTKNWLSADTKEERDLWMQKLNQVLVDIRLWQPDACYKPIGKP
With B2, the binding result in experiment [1] and in experiment [2] was “binds” each time.

B3: spastin (protein, UniProt Q9UBP0 1-616)
chain: MNSPGGRGKKKGSGGASNPVPPRPPPPCLAPAPPAAGPAPPPESPHKRNLYYFSYPLFVGFALLRLVAFHLGLLFVWLCQRFSRALMAAKRSSGAAPAPASASAPAPVPGGEAERVRVFHKQAFEYISIALRIDEDEKAGQKEQAVEWYKKGIEELEKGIAVIVTGQGEQCERARRLQAKMMTNLVMAKDRLQLLEKMQPVLPFSKSQTDVYNDSTNLACRNGHLQSESGAVPKRKDPLTHTSNSLPRSKTVMKTGSAGLSGHHRAPSYSGLSMVSGVKQGSGPAPTTHKGTPKTNRTNKPSTPTTATRKKKDLKNFRNVDSNLANLIMNEIVDNGTAVKFDDIAGQDLAKQALQEIVILPSLRPELFTGLRAPARGLLLFGPPGNGKTMLAKAVAAESNATFFNISAASLTSKYVGEGEKLVRALFAVARELQPSIIFIDEVDSLLCERREGEHDASRRLKTEFLIEFDGVQSAGDDRVLVMGATNRPQELDEAVLRRFIKRVYVSLPNEETRLLLLKNLLCKQGSPLTQKELAQLARMTDGYSGSDLTALAKDAALGPIRELKPEQVKNMSASEMRNIRLSDFTESLKKIKRSVSPQTLEAYIRWNKDFGDTTV
In the case of B3, the binding result in experiment [1] and in experiment [2] was “binds” each time.
